Consider one sequence from publication PMC12402098, “YTHDF3 recognizes DNA N6-methyladenine and recruits ALKBH1 for 6mA removal from genomic DNA” (The EMBO Journal, 2025).

The series deals with T1, YTHDF3 MTbind, immunopurified L455M,L461V,V482A,A487T,Y488C,E502D,K504R (Homo sapiens) (UniProt Q7Z739).
T1 sequence (looked up, limits assumed): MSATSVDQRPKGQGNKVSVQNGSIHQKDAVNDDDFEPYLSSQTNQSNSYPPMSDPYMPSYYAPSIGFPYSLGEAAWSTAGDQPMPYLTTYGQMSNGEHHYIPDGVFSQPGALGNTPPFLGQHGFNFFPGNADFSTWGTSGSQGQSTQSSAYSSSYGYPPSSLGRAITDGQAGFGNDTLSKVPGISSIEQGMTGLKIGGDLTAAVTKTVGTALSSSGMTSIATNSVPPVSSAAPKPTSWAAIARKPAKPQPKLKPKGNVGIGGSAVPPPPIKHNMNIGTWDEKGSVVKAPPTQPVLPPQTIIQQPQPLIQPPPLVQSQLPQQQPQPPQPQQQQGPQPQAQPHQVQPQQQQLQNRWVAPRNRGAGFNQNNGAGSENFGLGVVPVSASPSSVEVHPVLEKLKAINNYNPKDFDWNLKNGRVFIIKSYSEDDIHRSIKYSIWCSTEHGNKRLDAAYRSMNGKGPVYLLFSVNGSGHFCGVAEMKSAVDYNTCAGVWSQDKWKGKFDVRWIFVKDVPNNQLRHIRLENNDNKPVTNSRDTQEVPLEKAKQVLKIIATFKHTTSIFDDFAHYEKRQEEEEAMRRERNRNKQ
The series is described as follows: pull-down. As to conditions: N6-methyl-dA at A10 of strand 1; pull-down: streptavidin-agarose, 1 nmol DNA, 30 C 30 min; protein in a lysate after overexpression; protein details: Flag; label: 3' biotin strand 1.

The exact form of at least one protein or probe is not confirmed. Where cells or extracts were used, other partners may take part. Where a protein sequence is shown, tags need not be part of it.

As for “CTATGTTTCATGTACCGCCA (double strand) [6mA-ds-oligo]”, the binding result is reported as “binds”.
